Earlier results in patent US20210239702A1, “METHODS FOR PREDICTING RESPONSIVENESS OF LUNG CANCER PATIENTS TO HER2-TARGETING THERAPIES” (MEMORIAL SLOAN KETTERING CANCER CENTER, priority 2018, published 2021).
Some results were stated once for a whole list of compounds, not compound by compound. At least one structure is not confirmed: it was looked up by name or label, or the drawing left a doubt. Some compounds share one range, which may span the group rather than tell each member.

Tested on: HER2 mutant lung cancers
Details: patients with HER2 mutant lung cancers; cited from earlier work

| SMILES | response rates |
| --- | --- |
| COc1cc2ncnc(Nc3ccc(F)c(Cl)c3)c2cc1NC(=O)/C=C/CN1CCCCC1 [dacomitinib] | 0-19% |
| CN(C)C/C=C/C(=O)Nc1cc2c(Nc3ccc(F)c(Cl)c3)ncnc2cc1O[C@H]1CCOC1 [afatinib] | 0-19% |
